The supplement of paper PMC6078165

Tested on: MDAMB436
Experiment: relative JC-1 red fluorescence (viability) vs pre-drug, coculture with fibroblast (fraction); higher = more viable cancer cells
Conditions: 0.1 µM
Procedure: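 JC-1 labelled TNBC cells cocultured 1:1 (1,500 cells each) with CellTrace Violet stained primary or stromal fibroblasts in 384-well plates in FluoroBrite medium, treated with one of 42 anticancer drugs at 0.1, 1, 10 or 100 uM. JC-1 red fluorescence (mitochondrial integrity in cancer cells only) was read by plate reader every 8 h for 72 h. Values are normalised to each well's pre-drug value. The stock of one drug was tenfold lower, so its dose labels may be too high.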

COc1cc([C@@H]2c3cc4c(cc3[C@@H](O[C@@H]3O[C@@H]5CO[C@@H](c6cccs6)O[C@H]5[C@H](O)[C@H]3O)[C@H]3COC(=O)[C@H]23)OCO4)cc(OC)c1O [Teniposide]
relative JC-1 red fluorescence
Conditions | 8 h | 16 h | 24 h | 32 h | 40 h | 48 h | 56 h | 64 h | 72 h
coculture fibroblast: C12385 | 0.748 | 0.712 | 0.689 | 0.617 | 0.58 | 0.567 | 0.55 | 0.539 | 0.543
coculture fibroblast: H6013 | 0.811 | 0.781 | 0.757 | 0.762 | 0.753 | 0.774 | 0.752 | 0.746 | 0.704
coculture fibroblast: H6019 | 0.7227 | 0.675 | 0.653 | 0.577 | 0.538 | 0.523 | 0.495 | 0.469 | 0.456
coculture fibroblast: H6076 | 0.786 | 0.734 | 0.743 | 0.709 | 0.7114 | 0.6989 | 0.7238 | 0.7349 | 0.746
coculture fibroblast: H6231 | 0.72 | 0.661 | 0.69 | 0.613 | 0.599 | 0.574 | 0.576 | 0.556 | 0.548
coculture fibroblast: HADF | 0.785 | 0.7471 | 0.72479 | 0.703 | 0.694 | 0.719 | 0.679 | 0.683 | 0.651
coculture fibroblast: HCFa | 0.761 | 0.735 | 0.709 | 0.683 | 0.682 | 0.7 | 0.645 | 0.648 | 0.604
coculture fibroblast: HCPF | 0.786 | 0.741 | 0.734 | 0.659 | 0.648 | 0.614 | 0.59 | 0.585 | 0.565
coculture fibroblast: HHSteC | 0.79826 | 0.7636 | 0.7346 | 0.705 | 0.697 | 0.713 | 0.665 | 0.647 | 0.599
coculture fibroblast: HMF | 0.773 | 0.717 | 0.693 | 0.648 | 0.642 | 0.613 | 0.621 | 0.606 | 0.607
coculture fibroblast: HPFa | 0.832 | 0.7824 | 0.766 | 0.7319 | 0.7297 | 0.745 | 0.677 | 0.648 | 0.581
coculture fibroblast: HUF | 0.805 | 0.7317 | 0.7099 | 0.6359 | 0.5958 | 0.57 | 0.553 | 0.55 | 0.5492
coculture fibroblast: Hs5 | 0.787 | 0.733 | 0.723 | 0.675 | 0.665 | 0.628 | 0.657 | 0.635 | 0.65
coculture fibroblast: Hs27A | 0.775 | 0.725 | 0.715 | 0.696 | 0.687 | 0.76 | 0.673 | 0.675 | 0.601
coculture fibroblast: Hs343T | 0.741 | 0.67 | 0.634 | 0.588 | 0.576 | 0.542 | 0.536 | 0.538 | 0.536
coculture fibroblast: WS1 | 0.761 | 0.722 | 0.706 | 0.622 | 0.589 | 0.575 | 0.558 | 0.542 | 0.548

Values are relative to the signal before dosing, not to a vehicle control; the signal also falls without drug.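 Fibroblast labels name human fibroblasts: mostly primary ones from tissues such as uterus (C12385, HUF), lung (H6013), bone (Hs27A), adrenal (HADF) and skin (WS1), plus mammary HMF and breast cancer-associated Hs343T. The cancer cells are basal-like or mesenchymal-like triple-negative breast cancer lines. The paper calls a changed response a hit when it shifts by more than 3x the replicate standard deviation. The tissue of the other fibroblasts is not given here.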
